Measured values taken from patent US5824771A (The Salk Institute for Biological Studies, priority 1997, dated 1998).

Test: general procedure: Boc solid-phase peptide synthesis; MBHA hydrochloride resin (Bachem), about 0.1 to 0.5 mmoles/gm; DCC or DICI; BOP/DIEA for lactam cyclization
Conditions: whole synthesis, scale of the general procedure about 3 grams of resin

Row | Substance | final purity (method not given) (CZE) | further results
1 | (cyclo 30-33)Ac-Ile-Ser-Leu-Asp-Leu-Thr-D-Phe-His-Leu-Leu-Arg-Glu-Val-Leu-Glu-Nle-Ala-Arg-Ala-Glu-Gln-Leu-Ala- Gln-Glu-Ala-His-Lys-Asn-Arg-Lys-Leu-Nle-Glu-Ile-Ile-NH2 | about 98% | –
2 | (cyclo 30-33)Ac-Ser-Leu-Asp-Leu-Thr-D-Phe-His-Leu-Leu-Arg-Glu-Val-Leu-Glu-Nle-Ala-Arg-Ala-Glu-Gln-Leu-Ala-Gln- Glu-Ala-His-Lys-Asn-Arg-Lys-Leu-Nle-Glu-Ile-Ile-NH2 | about 98% | –
3 | H-NDDPPISIDLT[dF]HLLRN[Nle]IE[Nle]ARIENEREEAGKNRKYLDEV-NH2 | – | final purity (method not given) (capillary zone electrophoresis): about 98%
4 | pGlu-Gly-Pro-Pro-Ile-Ser-Ile-Asp-Leu-Ser-D-Leu-Glu-Leu-Leu-Arg-Lys-Nle-Ile- Glu-Ile-Glu-Lys-Gln-Glu-Lys-Glu-Lys- Gln-Glu-Ala-Ala-Lys-Asn-Arg-Leu-Leu-Leu-Asp-Thr-Ile-NH2 | – | final purity (method not given) (capillary zone electrophoresis, side-chain lactam ring, sequence written open): about 98%

One purity is given for all peptides; the source may state it once. Square brackets hold non-standard residues; d marks the D form. Nle = CCCC[C@H](N)C(=O)O
